The results in this text go back to paper PMC3276143.

Amino acid sequences for entries named in this document (tags omitted).
UniProt P06243: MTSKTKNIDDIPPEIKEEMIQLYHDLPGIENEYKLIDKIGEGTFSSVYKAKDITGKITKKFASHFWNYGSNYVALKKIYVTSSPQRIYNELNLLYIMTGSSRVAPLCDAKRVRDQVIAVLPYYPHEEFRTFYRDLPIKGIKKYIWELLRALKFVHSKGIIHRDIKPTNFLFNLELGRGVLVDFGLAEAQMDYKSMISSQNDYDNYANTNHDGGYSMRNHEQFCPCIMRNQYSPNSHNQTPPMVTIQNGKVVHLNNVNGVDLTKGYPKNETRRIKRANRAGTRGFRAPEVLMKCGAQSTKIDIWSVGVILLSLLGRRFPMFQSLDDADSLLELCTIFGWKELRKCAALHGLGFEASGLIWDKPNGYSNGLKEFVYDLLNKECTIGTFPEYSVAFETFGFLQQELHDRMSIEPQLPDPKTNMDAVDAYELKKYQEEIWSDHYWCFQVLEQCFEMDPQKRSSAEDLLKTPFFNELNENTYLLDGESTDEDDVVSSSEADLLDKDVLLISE
UniProt O00311: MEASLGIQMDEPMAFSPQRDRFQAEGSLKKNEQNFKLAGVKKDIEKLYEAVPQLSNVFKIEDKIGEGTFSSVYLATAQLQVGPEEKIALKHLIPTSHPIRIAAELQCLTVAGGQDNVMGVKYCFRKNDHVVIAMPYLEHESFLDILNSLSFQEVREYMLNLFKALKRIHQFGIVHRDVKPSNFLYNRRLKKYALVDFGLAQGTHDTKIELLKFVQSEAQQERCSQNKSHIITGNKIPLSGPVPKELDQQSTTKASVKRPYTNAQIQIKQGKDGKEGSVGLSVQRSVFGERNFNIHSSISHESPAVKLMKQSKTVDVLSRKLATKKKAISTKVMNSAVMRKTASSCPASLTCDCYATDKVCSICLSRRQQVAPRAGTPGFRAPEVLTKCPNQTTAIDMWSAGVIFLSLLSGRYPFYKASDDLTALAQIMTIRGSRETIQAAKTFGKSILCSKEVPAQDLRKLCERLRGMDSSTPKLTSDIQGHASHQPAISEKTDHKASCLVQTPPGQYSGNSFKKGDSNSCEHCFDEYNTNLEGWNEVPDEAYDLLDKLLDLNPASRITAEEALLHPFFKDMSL

Assay [1] deals with T1, HsDbf4 (human Dbf4) as used in the reciprocal experiment of Figure S1 (human) (UniProt Q9UBU7).
T1 sequence: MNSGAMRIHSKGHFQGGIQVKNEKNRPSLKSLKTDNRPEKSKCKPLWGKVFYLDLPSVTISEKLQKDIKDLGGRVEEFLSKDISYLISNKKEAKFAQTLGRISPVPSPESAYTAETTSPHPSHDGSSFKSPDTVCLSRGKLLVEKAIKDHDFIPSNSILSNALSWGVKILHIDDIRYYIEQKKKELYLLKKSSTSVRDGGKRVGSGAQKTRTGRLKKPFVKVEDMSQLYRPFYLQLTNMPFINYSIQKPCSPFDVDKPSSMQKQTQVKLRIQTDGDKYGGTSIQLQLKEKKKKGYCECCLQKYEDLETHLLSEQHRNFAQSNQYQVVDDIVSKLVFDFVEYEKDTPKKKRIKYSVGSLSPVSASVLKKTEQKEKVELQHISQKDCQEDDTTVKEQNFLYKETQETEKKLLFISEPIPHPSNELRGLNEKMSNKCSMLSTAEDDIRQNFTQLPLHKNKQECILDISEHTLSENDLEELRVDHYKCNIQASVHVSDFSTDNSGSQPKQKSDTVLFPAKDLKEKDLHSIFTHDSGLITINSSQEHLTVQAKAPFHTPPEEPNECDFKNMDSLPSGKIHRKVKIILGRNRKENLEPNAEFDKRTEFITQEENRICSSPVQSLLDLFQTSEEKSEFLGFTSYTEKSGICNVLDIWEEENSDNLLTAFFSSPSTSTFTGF
The experiment in a line: co-IP; reciprocal experiment in which antibodies to the human proteins were used (Figure S1).

The target in assay [2] is T2, TAP-ScDbf4 (S. cerevisiae Dbf4 fused to a tandem affinity purification tag) (S. cerevisiae) (UniProt P32325).
T2 sequence: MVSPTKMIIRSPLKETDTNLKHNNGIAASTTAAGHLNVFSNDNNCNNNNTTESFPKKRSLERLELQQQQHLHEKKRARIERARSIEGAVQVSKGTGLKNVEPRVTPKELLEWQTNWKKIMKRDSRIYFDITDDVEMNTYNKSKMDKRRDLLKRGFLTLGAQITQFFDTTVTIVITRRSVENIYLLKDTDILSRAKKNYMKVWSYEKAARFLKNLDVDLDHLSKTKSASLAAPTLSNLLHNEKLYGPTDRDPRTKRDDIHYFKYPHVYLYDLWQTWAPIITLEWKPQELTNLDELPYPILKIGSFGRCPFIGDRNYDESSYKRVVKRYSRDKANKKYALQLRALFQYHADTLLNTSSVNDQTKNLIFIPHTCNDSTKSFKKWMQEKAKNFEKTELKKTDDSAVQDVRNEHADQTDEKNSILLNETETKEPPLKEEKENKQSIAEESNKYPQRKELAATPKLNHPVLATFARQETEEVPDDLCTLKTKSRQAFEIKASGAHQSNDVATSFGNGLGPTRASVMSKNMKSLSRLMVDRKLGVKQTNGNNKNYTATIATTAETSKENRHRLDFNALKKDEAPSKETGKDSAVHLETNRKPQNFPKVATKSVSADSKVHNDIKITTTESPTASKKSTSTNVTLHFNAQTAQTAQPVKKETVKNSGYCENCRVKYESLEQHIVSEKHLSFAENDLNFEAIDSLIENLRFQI
The experiment in a line: co-IP; TAP-tagged bait isolated from yeast cell extract on rabbit IgG coupled Epoxy M270 Dynabeads, 2 h at 4°; lysis buffer 25 mM Tris-HCl pH 8.0, 150 mM NaCl, 0.1 mM EDTA, 0.1% NP40; bound proteins detected by Western blotting. (A western blot detects proteins with antibodies after separation by electrophoresis.)

Assay [3] deals with TAP-ScCdc7 (S. cerevisiae Cdc7 with a tandem affinity purification tag) (S. cerevisiae) (UniProt P06243). The assay is described as above.
Assay [4] addresses HsCdc7 (human Cdc7) as used in the reciprocal experiment of Figure S1 (human) (UniProt O00311). The experiment in a line: co-IP; reciprocal experiment in which antibodies to the human proteins were used (Figure S1).

These are yes or no findings as the source states them, for the method shown. Binding seen in cells or lysates may run through a third protein. For some of these results: Where a sequence is shown, tags or fusion partners need not be part of it.

Regarding “ScCdc7 (S. cerevisiae Cdc7) (from UniProt P06243 1-507)”, the binding entry in assay [1] is reported as “no binding”.

In the case of “myc^9-HsCdc7 (myc9-tagged human Cdc7) (from UniProt O00311 1-574)”, the binding result in assay [2] is on record as “no binding”.

B1: myc^9-HsDbf4 (myc9-tagged human Dbf4) (protein, UniProt Q9UBU7 1-674)
chain: MNSGAMRIHSKGHFQGGIQVKNEKNRPSLKSLKTDNRPEKSKCKPLWGKVFYLDLPSVTISEKLQKDIKDLGGRVEEFLSKDISYLISNKKEAKFAQTLGRISPVPSPESAYTAETTSPHPSHDGSSFKSPDTVCLSRGKLLVEKAIKDHDFIPSNSILSNALSWGVKILHIDDIRYYIEQKKKELYLLKKSSTSVRDGGKRVGSGAQKTRTGRLKKPFVKVEDMSQLYRPFYLQLTNMPFINYSIQKPCSPFDVDKPSSMQKQTQVKLRIQTDGDKYGGTSIQLQLKEKKKKGYCECCLQKYEDLETHLLSEQHRNFAQSNQYQVVDDIVSKLVFDFVEYEKDTPKKKRIKYSVGSLSPVSASVLKKTEQKEKVELQHISQKDCQEDDTTVKEQNFLYKETQETEKKLLFISEPIPHPSNELRGLNEKMSNKCSMLSTAEDDIRQNFTQLPLHKNKQECILDISEHTLSENDLEELRVDHYKCNIQASVHVSDFSTDNSGSQPKQKSDTVLFPAKDLKEKDLHSIFTHDSGLITINSSQEHLTVQAKAPFHTPPEEPNECDFKNMDSLPSGKIHRKVKIILGRNRKENLEPNAEFDKRTEFITQEENRICSSPVQSLLDLFQTSEEKSEFLGFTSYTEKSGICNVLDIWEEENSDNLLTAFFSSPSTSTFTGF
With B1, in assay [3], the binding entry is on record as “no binding”.

B2: ScDbf4 (S. cerevisiae Dbf4) (protein, UniProt P32325 1-704)
chain: MVSPTKMIIRSPLKETDTNLKHNNGIAASTTAAGHLNVFSNDNNCNNNNTTESFPKKRSLERLELQQQQHLHEKKRARIERARSIEGAVQVSKGTGLKNVEPRVTPKELLEWQTNWKKIMKRDSRIYFDITDDVEMNTYNKSKMDKRRDLLKRGFLTLGAQITQFFDTTVTIVITRRSVENIYLLKDTDILSRAKKNYMKVWSYEKAARFLKNLDVDLDHLSKTKSASLAAPTLSNLLHNEKLYGPTDRDPRTKRDDIHYFKYPHVYLYDLWQTWAPIITLEWKPQELTNLDELPYPILKIGSFGRCPFIGDRNYDESSYKRVVKRYSRDKANKKYALQLRALFQYHADTLLNTSSVNDQTKNLIFIPHTCNDSTKSFKKWMQEKAKNFEKTELKKTDDSAVQDVRNEHADQTDEKNSILLNETETKEPPLKEEKENKQSIAEESNKYPQRKELAATPKLNHPVLATFARQETEEVPDDLCTLKTKSRQAFEIKASGAHQSNDVATSFGNGLGPTRASVMSKNMKSLSRLMVDRKLGVKQTNGNNKNYTATIATTAETSKENRHRLDFNALKKDEAPSKETGKDSAVHLETNRKPQNFPKVATKSVSADSKVHNDIKITTTESPTASKKSTSTNVTLHFNAQTAQTAQPVKKETVKNSGYCENCRVKYESLEQHIVSEKHLSFAENDLNFEAIDSLIENLRFQI
In the case of B2, the binding result in assay [4] is on record as “no binding”.
